Laboratory results published in PMC4702109, “Osmotic stress induces the phosphorylation of WNK4 Ser575 via the p38MAPK-MK pathway” (Scientific Reports, 2016).
These are yes or no findings as the source states them, for the method shown. For some of these results: Binding seen in cells or lysates may run through a third protein. Some entries that bind do so weakly or less than the wild type. For some of these results: Tags and fused reporters may be left off the sequences shown.

Protein sequences, listed by entry. Tags and fused reporters are not part of them. Lines headed by an entry give the natural chain unless they say otherwise; changes in a name come on top. Chains listed by the source or under a name are the forms on record and can include a tag or linker.
UniProt Q6ZN16: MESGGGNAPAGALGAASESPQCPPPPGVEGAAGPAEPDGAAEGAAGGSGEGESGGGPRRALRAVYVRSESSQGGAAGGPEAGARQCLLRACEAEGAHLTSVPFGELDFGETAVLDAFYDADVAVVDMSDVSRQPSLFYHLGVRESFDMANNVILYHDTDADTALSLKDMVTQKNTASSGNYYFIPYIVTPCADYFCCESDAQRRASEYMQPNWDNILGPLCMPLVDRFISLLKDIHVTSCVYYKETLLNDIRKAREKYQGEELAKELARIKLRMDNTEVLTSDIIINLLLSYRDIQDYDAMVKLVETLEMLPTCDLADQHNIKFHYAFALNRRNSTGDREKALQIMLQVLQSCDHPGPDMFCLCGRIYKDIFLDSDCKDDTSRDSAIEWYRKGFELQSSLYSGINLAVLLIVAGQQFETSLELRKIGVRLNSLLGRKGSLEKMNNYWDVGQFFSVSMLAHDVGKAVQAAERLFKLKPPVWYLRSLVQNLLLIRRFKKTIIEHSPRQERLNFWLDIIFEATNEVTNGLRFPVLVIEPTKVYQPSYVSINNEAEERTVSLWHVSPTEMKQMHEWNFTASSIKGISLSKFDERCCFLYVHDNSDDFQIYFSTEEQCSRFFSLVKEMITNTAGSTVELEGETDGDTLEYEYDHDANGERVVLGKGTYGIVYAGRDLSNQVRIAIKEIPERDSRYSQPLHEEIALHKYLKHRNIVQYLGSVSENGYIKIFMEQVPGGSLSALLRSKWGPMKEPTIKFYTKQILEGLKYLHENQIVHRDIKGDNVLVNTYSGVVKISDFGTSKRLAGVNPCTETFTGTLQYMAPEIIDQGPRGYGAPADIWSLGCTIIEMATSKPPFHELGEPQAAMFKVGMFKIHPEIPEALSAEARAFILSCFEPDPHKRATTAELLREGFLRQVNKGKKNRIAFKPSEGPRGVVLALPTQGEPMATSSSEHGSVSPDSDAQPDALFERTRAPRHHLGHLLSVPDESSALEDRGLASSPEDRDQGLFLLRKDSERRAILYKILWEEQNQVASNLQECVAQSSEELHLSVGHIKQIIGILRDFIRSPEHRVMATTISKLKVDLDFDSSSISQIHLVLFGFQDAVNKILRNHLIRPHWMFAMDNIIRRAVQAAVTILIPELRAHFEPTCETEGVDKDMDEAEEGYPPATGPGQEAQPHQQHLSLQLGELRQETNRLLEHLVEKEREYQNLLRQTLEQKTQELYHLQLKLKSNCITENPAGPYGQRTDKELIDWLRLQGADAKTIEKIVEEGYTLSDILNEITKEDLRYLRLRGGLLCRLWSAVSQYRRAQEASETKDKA
human ASK3-KM fused to the GAL4 DNA-binding domain (Q6ZN16, form named): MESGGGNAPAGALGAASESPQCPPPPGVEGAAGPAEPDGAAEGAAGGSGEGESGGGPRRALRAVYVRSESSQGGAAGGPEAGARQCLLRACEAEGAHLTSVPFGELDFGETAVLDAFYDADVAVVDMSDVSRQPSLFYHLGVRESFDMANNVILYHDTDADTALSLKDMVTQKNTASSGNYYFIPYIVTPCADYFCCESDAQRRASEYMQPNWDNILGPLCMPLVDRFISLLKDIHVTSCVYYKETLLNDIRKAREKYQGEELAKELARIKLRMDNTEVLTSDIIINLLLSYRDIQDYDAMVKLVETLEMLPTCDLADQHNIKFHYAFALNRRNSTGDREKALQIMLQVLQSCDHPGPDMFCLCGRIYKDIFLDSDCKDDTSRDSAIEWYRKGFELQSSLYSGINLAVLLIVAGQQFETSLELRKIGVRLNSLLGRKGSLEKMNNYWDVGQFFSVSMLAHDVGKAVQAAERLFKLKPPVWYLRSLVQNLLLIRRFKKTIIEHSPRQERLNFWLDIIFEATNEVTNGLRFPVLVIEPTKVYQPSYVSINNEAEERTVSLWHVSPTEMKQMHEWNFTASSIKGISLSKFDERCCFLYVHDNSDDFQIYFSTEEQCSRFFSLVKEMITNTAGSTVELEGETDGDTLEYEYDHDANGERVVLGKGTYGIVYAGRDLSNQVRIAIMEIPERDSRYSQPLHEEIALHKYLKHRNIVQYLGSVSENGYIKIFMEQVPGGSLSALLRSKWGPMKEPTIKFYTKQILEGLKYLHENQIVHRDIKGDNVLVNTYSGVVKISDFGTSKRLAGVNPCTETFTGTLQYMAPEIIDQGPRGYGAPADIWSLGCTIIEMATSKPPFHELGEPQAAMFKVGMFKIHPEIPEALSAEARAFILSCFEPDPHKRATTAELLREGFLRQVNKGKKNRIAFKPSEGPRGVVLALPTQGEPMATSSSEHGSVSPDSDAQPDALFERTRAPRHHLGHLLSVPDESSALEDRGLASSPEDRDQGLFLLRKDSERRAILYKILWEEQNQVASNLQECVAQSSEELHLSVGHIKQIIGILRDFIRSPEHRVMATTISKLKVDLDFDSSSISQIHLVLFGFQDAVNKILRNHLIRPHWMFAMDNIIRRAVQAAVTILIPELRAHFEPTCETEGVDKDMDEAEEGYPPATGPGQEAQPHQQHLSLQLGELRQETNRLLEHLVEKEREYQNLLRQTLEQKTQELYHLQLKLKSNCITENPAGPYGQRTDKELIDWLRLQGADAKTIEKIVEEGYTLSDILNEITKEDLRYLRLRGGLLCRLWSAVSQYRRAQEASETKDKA
UniProt P49138: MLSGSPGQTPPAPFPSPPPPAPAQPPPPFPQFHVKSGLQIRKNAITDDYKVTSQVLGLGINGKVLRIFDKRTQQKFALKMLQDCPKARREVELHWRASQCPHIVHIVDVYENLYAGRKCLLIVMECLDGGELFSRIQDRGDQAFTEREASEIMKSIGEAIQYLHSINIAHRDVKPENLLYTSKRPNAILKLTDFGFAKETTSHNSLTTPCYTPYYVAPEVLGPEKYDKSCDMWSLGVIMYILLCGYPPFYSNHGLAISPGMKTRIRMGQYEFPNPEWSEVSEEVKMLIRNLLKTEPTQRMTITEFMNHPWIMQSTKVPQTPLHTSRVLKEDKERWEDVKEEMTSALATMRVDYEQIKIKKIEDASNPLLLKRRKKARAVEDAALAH
UniProt O54992: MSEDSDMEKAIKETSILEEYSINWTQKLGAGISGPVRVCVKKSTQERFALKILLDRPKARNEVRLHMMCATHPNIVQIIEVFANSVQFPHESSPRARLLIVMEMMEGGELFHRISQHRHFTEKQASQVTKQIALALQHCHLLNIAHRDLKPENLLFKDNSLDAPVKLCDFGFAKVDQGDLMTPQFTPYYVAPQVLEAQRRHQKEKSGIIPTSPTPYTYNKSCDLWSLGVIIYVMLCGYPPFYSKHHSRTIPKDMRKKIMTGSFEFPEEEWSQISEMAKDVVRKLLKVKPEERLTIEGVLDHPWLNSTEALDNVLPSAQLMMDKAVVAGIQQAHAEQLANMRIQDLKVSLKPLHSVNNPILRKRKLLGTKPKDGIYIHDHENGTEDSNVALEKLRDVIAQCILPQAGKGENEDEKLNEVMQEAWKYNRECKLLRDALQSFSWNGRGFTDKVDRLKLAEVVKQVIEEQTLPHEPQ
UniProt Q3UMW7: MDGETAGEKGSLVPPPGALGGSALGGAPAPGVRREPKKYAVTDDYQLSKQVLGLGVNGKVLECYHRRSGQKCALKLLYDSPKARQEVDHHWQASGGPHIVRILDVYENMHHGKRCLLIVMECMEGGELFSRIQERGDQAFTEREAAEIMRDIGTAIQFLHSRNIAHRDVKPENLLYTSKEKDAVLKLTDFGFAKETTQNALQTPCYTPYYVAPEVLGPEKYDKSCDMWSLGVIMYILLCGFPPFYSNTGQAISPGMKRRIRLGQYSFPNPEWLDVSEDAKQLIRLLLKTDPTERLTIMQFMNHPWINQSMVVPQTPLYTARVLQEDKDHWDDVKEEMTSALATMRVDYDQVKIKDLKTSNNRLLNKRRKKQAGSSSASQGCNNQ

Legend:
[1] = target: FLAG-tagged human ASK3 kinase-inactive mutant (human) (UniProt Q6ZN16); test: co-IP; HEK293A cells co-transfected, lysed 48 h after transfection; anti-FLAG antibody beads, immunoblot for co-precipitated WNK4; osmotic stress did not significantly affect the interaction (Supplementary Fig. S1)
[2] = target: FLAG-tagged human ASK3 wild type (human) (UniProt Q6ZN16); test: as above
[3] = target: FLAG-tagged mouse MK2 (mouse) (UniProt P49138); test: co-IP; mIMCD3 cells co-transfected, lysed 24 h after transfection; FLAG-tagged MK kinases immunoprecipitated with anti-FLAG antibody beads
[4] = target: FLAG-tagged mouse MK5 (mouse) (UniProt O54992); test: as above
[5] = target: FLAG-tagged mouse MK3 (mouse) (UniProt Q3UMW7); test: as above
[6] = target: human ASK3-KM fused to the GAL4 DNA-binding domain (human) (UniProt Q6ZN16); test: two-hybrid; GAL4 system; bait ASK3-K681M in pGBKT7 (AH109) mated with human kidney cDNA library prey in pACT2 (Y187); growth on selection medium (QDO: without adenine, His, Leu, Trp)
[7] = target: T1, WNK4 (557–580)-E562K peptide (human) (UniProt Q96J92); test: pull-down; FLAG-tagged synthetic WNK4 (557–580) peptides (1 μg) held on anti-FLAG antibody beads; GST-hKLHL3 (290–587) incubated 6 hours, washed with IP lysis buffer; immunoblot; two amounts of GST-KLHL3 (3-fold apart); both purified
T1 sequence (peptide): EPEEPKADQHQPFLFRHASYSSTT

**Q.** How did the binding [1] turn out when “HA-tagged human WNK4 (in HEK293A cells) (from UniProt Q96J92 1-1243)” was run?
**A.** binds

**Q.** And the binding [2]?
**A.** binds

**Q.** For “HA-tagged human WNK4 (in mIMCD3 cells) (from UniProt Q96J92 1-1243)”, which binding [3] is on record?
**A.** binds

**Q.** And the binding [4]?
**A.** binds

**Q.** What about the binding [5] of the same molecule?
**A.** binds

**Q.** For “human WNK4 (850–1007) fused to the GAL4 transcriptional activation domain (from UniProt Q96J92 850-1007) (domain or fragment)”, which binding [6] is on record?
**A.** binds

B1: GST-hKLHL3 (290–587) (domain or fragment, UniProt Q9UH77 290-587)
chain: RTKPRTPVSLPKVMIVVGGQAPKAIRSVECYDFEEDRWDQIAELPSRRCRAGVVFMAGHVYAVGGFNGSLRVRTVDVYDGVKDQWTSIASMQERRSTLGAAVLNDLLYAVGGFDGSTGLASVEAYSYKTNEWFFVAPMNTRRSSVGVGVVEGKLYAVGGYDGASRQCLSTVEQYNPATNEWIYVADMSTRRSGAGVGVLSGQLYATGGHDGPLVRKSVEVYDPGTNTWKQVADMNMCRRNAGVCAVNGLLYVVGGDDGSCNLASVEYYNPVTDKWTLLPTNMSTGRSYAGVAVIHKSL
**Q.** Which binding [7] does the source give for B1 here?
**A.** no binding
